A weaker result is weaker than the reference pair of the same experiment. Protein sequences can lack the tags named with them.
Target: T1, C-PDS5B-His R1292Q (Homo sapiens) (UniProt Q9NTI5)
T1 sequence (looked up): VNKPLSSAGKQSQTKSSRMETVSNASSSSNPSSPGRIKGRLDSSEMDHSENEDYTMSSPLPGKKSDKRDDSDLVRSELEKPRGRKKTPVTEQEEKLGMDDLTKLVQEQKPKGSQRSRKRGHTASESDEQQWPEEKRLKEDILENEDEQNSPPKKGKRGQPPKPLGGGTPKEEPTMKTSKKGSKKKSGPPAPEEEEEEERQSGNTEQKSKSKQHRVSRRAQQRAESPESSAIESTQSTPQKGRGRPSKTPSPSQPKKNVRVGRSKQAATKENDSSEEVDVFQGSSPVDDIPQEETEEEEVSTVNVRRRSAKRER
Assay: EMSA
Conditions: 5-40 ng protein, decreased compared to wild type; EMSA: 20 ng protein (5-40 ng in Fig. 7E) with 2.25 pmol 32P probe, 25 C, 5 min, 6% polyacrylamide gel; protein dialyzed in 50 mM Tris pH 7.5, 0.5 mM EDTA, 100 mM NaCl; recombinant protein; residues 1134-1446; protein details: N-terminal HA, C-terminal 6xHis; label: 32P

Sequence: GGACTCCAGGTCCAGGACCGCTTTTTGCGCGCGCTTTTTGCGGGAGGTCCAGCTGTCCACCTCC (double strand) [T5-8-T5 probe]
- binding result: binds more weakly

Source: article PMC2672303, “Dosage Effects of Cohesin Regulatory Factor PDS5 on Mammalian Development: Implications for Cohesinopathies”
